No constants are given. Whether binding was seen depends on the method and setting. Binding seen in cells or lysates may run through a third protein. Some results given as binding are weak or reduced against the parent protein; the word gives no strength.
Legend:
[1] = biological target: glucocorticoid receptor (human (endogenous in SH-SY5Y)) (UniProt P04150); assay: co-IP; primary antibodies immobilised on protein G magnetic beads, incubated with SH-SY5Y cell lysates (IP lysis buffer) overnight at 4 °C, washed with PBST, eluted with 20 mM glycine pH 2.0, western blot; cells treated with melatonin (1 μM) for 30 min and then with cortisol (1 μM) for 24 h
[2] = biological target: glucocorticoid receptor (human (endogenous in SH-SY5Y)) (UniProt P04150); assay: proximity ligation; Duolink in situ kit on SH-SY5Y cells fixed with 4% paraformaldehyde, rabbit anti-GR and mouse anti-FKBP4 antibodies; cells treated with melatonin (1 μM) for 30 min and then with cortisol (1 μM) for 24 h

The chains behind the UniProt entries cited, without tags or fusion partners.
UniProt P04150: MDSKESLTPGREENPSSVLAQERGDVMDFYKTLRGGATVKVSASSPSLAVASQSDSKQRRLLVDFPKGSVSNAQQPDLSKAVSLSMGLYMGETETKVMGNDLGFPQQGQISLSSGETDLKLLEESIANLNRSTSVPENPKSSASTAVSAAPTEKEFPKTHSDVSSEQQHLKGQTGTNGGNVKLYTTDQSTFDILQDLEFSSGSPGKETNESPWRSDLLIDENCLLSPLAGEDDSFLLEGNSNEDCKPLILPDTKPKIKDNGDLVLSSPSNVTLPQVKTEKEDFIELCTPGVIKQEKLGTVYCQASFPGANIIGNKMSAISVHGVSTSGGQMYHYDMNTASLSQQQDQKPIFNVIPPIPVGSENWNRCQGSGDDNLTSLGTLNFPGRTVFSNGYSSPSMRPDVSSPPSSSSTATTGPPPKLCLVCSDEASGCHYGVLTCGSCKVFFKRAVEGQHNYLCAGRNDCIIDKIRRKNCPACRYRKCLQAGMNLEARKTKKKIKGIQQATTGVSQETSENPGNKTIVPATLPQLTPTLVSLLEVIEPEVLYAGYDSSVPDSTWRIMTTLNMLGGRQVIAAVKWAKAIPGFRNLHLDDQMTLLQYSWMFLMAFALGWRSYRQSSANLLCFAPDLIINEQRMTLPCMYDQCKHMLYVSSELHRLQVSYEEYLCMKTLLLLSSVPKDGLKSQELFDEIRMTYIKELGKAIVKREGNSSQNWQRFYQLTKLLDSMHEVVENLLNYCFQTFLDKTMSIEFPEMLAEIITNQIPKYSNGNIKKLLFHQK

binding [1] | binding [2] | Binder
binds | – | FKBP5 (protein, UniProt Q13451 1-457) MTTDEGAKNNEESPTATVAEQGEDITSKKDRGVLKIVKRVGNGEETPMIGDKVYVHYKGKLSNGKKFDSSHDRNEPFVFSLGKGQVIKAWDIGVATMKKGEICHLLCKPEYAYGSAGSLPKIPSNATLFFEIELLDFKGEDLFEDGGIIRRTKRKGEGYSNPNEGATVEIHLEGRCGGRMFDCRDVAFTVGEGEDHDIPIGIDKALEKMQREEQCILYLGPRYGFGEAGKPKFGIEPNAELIYEVTLKSFEKAKESWEMDTKEKLEQAAIVKEKGTVYFKGGKYMQAVIQYGKIVSWLEMEYGLSEKESKASESFLLAAFLNLAMCYLKLREYTKAVECCDKALGLDSANEKGLYRRGEAQLLMNEFESAKGDFEKVLEVNPQNKAARLQISMCQKKAKEHNERDRRIYANMFKKFAEQDAKEEANKAMGKKTSEGVTNEKGTDSQAMEEEKPEGHV
binds | binds | FKBP prolyl isomerase 4 (protein, UniProt Q02790 1-459) MTAEEMKATESGAQSAPLPMEGVDISPKQDEGVLKVIKREGTGTEMPMIGDRVFVHYTGWLLDGTKFDSSLDRKDKFSFDLGKGEVIKAWDIAIATMKVGEVCHITCKPEYAYGSAGSPPKIPPNATLVFEVELFEFKGEDLTEEEDGGIIRRIQTRGEGYAKPNEGAIVEVALEGYYKDKLFDQRELRFEIGEGENLDLPYGLERAIQRMEKGEHSIVYLKPSYAFGSVGKEKFQIPPNAELKYELHLKSFEKAKESWEMNSEEKLEQSTIVKERGTVYFKEGKYKQALLQYKKIVSWLEYESSFSNEEAQKAQALRLASHLNLAMCHLKLQAFSAAIESCNKALELDSNNEKGLFRRGEAHLAVNDFELARADFQKVLQLYPNNKAAKTQLAVCQQRIRRQLAREKKLYANMFERLAEEENKAKAEASSGDHPTDTEMKEEQKSNTAGSQSQVETEA

— PMC9943853
